No constants are given. Whether binding was seen depends on the method and setting. In cells and extracts the contact can be indirect. Some results given as binding are weak or reduced against the parent protein; the word gives no strength.
Target: T1, TKs5 (tyrosine kinase substrate with five SH3 domains) (human (endogenous in A549 and HeLa)) (UniProt Q5TCZ1)
T1 sequence: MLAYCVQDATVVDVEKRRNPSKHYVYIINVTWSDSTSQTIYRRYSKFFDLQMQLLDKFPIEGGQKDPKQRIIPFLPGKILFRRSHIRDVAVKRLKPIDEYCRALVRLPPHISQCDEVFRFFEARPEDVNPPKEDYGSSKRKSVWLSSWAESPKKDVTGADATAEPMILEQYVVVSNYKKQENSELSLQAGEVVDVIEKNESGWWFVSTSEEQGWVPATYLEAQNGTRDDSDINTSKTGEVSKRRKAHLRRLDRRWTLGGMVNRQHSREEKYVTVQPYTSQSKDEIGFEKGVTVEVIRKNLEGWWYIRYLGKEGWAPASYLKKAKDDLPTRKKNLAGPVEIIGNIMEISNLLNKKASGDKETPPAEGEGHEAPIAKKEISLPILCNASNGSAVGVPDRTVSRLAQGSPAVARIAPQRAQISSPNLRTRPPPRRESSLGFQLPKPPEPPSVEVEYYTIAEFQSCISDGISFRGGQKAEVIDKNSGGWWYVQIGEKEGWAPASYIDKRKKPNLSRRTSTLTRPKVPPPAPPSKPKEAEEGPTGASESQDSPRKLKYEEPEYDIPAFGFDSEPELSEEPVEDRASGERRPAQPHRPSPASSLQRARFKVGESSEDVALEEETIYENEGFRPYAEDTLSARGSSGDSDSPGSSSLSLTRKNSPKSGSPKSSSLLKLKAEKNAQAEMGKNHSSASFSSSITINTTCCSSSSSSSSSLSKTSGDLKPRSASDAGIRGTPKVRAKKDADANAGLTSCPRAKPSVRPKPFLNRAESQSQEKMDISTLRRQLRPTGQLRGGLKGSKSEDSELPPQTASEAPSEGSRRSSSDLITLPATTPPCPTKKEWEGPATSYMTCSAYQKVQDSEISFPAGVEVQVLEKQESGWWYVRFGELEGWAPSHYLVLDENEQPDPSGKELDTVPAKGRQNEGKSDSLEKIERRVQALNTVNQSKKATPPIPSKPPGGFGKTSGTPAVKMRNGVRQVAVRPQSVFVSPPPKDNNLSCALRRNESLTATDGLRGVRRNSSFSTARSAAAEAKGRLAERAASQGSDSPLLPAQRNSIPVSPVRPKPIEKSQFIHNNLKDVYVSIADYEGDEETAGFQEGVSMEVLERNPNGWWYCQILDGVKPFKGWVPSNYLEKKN
Experiment: co-IP; Catch and Release Reversible Immunoprecipitation System; A549 and HeLa cells lysed 24 h after transfection in CHAPS lysis buffer (40 mM HEPES pH 7.5, 120 mM NaCl, 1 mM EDTA, 0.3% CHAPS); 1000 ug protein with 4 ug antibody overnight at 4 C; Western blot; rabbit IgG as negative control; cells untreated, mock, or transfected with p17, PTEN, PTEN C124A, p17 + PTEN C124A (FAK-Src) or with p17, p17 + TKs5 (TKs5-Nck1, TKs5-Rab40b)

B1: Rab40b (protein, UniProt Q12829 1-278)
chain: MSALGSPVRAYDFLLKFLLVGDSDVGKGEILASLQDGAAESPYGHPAGIDYKTTTILLDGRRVKLQLWDTSGQGRFCTIFRSYSRGAQGVILVYDIANRWSFDGIDRWIKEIDEHAPGVPKILVGNRLHLAFKRQVPTEQAQAYAERLGVTFFEVSPLCNFNITESFTELARIVLLRHGMDRLWRPSKVLSLQDLCCRAVVSCTPVHLVDKLPLPIALRSHLKSFSMANGLNARMMHGGSYSLTTSSTHKRSSLRKVKLVRPPQSPPKNCTRNSCKIS
binding: binds

Reference: paper PMC12198159
